# Reference: PubChem BioAssay AID463206 (Broad Institute, 2010)
# Activity calls are given as the source filed them.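 How the source made its calls: active means caspase luminescence falls with dose and the half-maximal concentration AC50 from the fitted curve is at or below a set limit; inconclusive means flat fit at 30 to 70% signal loss, or invalid fit; inactive means AC50 above the limit, or signal rises instead.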
# System: INS-1E cytokine-induced caspase-3/7, Caspase-Glo luminescence, 48 h
# Assay: inhibitors of cytokine-induced caspase-3/7 activity, dose response, orthogonal assay for beta-cell apoptosis protection project, INS-1E rat cells, luminescence (AID 463206)
smiles,measurement,value
COc1ccccc1C(=O)NNC(=S)NC(=O)c1ccco1,AC50,inactive: > 26 µM
